The experiment concerns the target T1, phospho TAK1-Thr184/187 (human (endogenous in MDA-MB-231 and T47D)) (UniProt O43318).
T1 sequence (chain, phosphothreonine at 184/187 (phospho TAK1-Thr184/187)): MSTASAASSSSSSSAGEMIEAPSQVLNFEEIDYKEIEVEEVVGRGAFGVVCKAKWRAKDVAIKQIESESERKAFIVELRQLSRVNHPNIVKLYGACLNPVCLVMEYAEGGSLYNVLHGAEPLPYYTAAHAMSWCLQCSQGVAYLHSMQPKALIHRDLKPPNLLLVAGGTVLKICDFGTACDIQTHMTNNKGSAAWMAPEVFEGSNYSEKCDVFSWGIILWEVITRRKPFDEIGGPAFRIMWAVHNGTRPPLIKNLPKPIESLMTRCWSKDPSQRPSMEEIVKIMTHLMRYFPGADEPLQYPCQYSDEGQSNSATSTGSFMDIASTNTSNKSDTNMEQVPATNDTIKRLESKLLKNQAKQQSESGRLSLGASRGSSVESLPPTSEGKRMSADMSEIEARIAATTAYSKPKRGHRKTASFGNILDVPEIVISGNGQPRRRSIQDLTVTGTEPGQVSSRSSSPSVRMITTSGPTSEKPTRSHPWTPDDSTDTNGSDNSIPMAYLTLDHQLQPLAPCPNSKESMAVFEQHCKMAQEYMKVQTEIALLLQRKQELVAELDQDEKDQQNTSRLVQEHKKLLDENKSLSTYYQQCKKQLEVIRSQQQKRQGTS
Kind of experiment: co-IP; endogenous proteins in lysates of breast cancer cells (MDA-MB-231, T47D) treated with TLR3 ligand poly(I:C) 10 ug/ml for 24 h, with or without MyD88 inhibitor ST2825 (1 uM, added 4 h before); non-denaturing lysis buffer (20 mM Tris-HCl, 137 mM NaCl, 1% Triton X-100, 2 mM EDTA); 1 ug antibody and Dynabeads overnight at 4 C; Western blotting. (In general: Immunoblotting shows a protein as a band on a membrane.)

This note sets out measurements from article PMC7531238.

No constants are given. Whether binding was seen depends on the method and setting. In cells and extracts the contact can be indirect. Some entries that bind do so weakly or less than the wild type.

B1: TGF-beta-activated kinase 1 (TAB1) (protein, UniProt Q15750 1-504)
chain: MAAQRRSLLQSEQQPSWTDDLPLCHLSGVGSASNRSYSADGKGTESHPPEDSWLKFRSENNCFLYGVFNGYDGNRVTNFVAQRLSAELLLGQLNAEHAEADVRRVLLQAFDVVERSFLESIDDALAEKASLQSQLPEGVPQHQLPPQYQKILERLKTLEREISGGAMAVVAVLLNNKLYVANVGTNRALLCKSTVDGLQVTQLNVDHTTENEDELFRLSQLGLDAGKIKQVGIICGQESTRRIGDYKVKYGYTDIDLLSAAKSKPIIAEPEIHGAQPLDGVTGFLVLMSEGLYKALEAAHGPGQANQEIAAMIDTEFAKQTSLDAVAQAVVDRVKRIHSDTFASGGERARFCPRHEDMTLLVRNFGYPLGEMSQPTPSPAPAAGGRVYPVSVPYSSAQSTSKTSVTLSLVMPSQGQMVNGAHSASTLDEATPTLTNQSPTLTLQSTNTHTQSSSSSSDGGLFRSRPAHSLPPGEDGRVEPYVDFAEFYRLWSVDHGEQSVVTAP
In the case of B1, the binding result is “binds”.
